Test results as given in the supplement of paper PMC5836539.
± gives the standard deviation of the averaged measurements. Single values are uncertain here, since repeats match poorly.

The chains behind the UniProt entries cited, without tags or fusion partners. Where a name states a change or a piece, a line headed by the entry shows the natural chain unless it says otherwise.
UniProt Q92614: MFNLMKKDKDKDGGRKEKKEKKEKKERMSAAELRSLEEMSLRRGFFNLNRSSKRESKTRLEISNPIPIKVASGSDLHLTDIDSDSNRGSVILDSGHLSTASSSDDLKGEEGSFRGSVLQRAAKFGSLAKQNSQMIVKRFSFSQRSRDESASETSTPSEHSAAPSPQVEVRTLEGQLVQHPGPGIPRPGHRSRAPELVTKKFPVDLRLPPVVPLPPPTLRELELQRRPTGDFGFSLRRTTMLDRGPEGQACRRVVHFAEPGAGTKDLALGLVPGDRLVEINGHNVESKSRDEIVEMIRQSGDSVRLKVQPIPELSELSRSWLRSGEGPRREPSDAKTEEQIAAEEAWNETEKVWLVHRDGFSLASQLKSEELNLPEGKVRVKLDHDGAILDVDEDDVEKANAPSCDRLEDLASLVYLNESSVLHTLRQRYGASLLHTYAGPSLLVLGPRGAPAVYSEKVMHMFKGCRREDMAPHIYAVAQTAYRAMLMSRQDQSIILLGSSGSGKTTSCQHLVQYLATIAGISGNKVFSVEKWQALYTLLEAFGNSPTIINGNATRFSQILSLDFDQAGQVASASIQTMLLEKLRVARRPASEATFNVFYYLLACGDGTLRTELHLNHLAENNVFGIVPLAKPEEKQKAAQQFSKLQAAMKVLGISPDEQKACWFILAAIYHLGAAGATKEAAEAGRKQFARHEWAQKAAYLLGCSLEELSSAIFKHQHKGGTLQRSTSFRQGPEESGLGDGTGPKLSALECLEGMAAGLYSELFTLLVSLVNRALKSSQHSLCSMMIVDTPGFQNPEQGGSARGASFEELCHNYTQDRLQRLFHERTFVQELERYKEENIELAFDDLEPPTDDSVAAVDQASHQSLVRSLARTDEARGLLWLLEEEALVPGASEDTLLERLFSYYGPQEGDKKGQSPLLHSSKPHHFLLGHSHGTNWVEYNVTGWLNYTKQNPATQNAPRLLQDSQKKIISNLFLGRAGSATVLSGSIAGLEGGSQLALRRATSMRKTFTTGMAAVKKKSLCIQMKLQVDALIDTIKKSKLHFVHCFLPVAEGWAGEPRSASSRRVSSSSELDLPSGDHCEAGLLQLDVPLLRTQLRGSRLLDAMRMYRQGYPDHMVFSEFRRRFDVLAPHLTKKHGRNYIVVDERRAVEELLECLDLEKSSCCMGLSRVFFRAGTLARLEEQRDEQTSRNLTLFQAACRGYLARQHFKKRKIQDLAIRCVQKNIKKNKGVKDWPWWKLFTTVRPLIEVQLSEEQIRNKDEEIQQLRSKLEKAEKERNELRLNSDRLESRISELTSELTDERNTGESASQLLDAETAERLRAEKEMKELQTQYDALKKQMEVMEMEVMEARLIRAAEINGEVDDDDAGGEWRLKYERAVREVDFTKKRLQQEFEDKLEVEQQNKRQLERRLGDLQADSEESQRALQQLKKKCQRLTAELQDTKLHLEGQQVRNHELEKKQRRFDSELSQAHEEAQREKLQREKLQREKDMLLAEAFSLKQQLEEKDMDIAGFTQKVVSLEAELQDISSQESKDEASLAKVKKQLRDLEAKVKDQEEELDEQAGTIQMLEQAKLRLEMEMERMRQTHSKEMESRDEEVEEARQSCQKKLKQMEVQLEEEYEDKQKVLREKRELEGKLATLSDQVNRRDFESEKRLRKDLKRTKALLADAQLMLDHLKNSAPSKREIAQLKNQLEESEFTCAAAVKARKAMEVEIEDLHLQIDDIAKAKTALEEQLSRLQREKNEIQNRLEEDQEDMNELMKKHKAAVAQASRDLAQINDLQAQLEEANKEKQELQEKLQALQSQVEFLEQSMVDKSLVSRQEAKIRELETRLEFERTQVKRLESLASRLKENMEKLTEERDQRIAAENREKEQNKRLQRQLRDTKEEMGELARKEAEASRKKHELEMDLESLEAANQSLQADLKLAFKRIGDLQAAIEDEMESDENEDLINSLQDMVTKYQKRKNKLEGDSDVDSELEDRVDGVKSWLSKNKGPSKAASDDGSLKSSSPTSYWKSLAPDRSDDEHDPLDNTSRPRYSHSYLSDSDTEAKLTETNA
UniProt O75113: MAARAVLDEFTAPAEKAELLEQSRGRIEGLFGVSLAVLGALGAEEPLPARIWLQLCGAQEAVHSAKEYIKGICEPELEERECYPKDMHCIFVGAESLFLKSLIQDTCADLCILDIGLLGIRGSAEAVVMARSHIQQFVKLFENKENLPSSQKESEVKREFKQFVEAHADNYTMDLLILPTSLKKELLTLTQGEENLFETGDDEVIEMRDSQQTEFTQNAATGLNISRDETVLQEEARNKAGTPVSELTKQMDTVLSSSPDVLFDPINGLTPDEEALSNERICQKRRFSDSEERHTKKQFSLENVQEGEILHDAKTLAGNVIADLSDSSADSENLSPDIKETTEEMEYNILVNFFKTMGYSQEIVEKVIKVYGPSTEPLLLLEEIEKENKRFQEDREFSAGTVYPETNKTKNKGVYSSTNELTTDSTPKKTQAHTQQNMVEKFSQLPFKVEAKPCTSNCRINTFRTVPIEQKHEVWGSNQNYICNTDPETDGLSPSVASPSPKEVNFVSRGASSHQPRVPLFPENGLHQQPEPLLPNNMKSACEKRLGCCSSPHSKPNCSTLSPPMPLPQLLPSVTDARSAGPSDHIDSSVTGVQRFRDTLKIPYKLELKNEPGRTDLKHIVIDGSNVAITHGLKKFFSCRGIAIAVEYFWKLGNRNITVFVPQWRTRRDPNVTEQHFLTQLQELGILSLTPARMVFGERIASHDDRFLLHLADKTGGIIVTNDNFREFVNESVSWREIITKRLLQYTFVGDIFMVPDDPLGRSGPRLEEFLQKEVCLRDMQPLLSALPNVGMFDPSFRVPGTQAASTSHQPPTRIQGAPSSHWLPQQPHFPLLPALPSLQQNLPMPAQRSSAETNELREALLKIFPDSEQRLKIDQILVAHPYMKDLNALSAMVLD
UniProt Q15742: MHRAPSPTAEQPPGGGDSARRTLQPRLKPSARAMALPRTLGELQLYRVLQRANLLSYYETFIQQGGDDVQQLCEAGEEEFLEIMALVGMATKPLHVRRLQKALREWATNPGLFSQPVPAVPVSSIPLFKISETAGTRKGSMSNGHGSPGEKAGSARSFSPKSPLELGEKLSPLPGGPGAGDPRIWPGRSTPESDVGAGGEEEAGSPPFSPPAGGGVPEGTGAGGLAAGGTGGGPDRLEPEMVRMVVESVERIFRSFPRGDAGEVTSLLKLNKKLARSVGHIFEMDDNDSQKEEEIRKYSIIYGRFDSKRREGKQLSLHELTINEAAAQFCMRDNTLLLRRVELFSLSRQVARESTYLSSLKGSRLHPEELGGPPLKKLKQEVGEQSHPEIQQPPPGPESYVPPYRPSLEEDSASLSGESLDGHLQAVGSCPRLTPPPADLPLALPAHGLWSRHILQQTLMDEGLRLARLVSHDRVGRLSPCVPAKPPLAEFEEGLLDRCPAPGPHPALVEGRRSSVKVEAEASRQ
UniProt Q99733: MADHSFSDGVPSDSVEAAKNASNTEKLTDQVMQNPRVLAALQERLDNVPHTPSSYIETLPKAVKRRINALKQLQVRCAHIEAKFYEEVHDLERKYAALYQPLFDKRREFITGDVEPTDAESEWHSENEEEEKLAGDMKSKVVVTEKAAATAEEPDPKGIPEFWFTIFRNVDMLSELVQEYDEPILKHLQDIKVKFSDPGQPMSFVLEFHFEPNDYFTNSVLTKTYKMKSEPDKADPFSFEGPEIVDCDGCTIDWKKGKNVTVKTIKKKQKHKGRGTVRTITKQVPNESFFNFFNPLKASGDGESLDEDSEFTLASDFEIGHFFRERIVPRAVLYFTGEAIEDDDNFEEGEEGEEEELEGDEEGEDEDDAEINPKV
UniProt Q9UGV2: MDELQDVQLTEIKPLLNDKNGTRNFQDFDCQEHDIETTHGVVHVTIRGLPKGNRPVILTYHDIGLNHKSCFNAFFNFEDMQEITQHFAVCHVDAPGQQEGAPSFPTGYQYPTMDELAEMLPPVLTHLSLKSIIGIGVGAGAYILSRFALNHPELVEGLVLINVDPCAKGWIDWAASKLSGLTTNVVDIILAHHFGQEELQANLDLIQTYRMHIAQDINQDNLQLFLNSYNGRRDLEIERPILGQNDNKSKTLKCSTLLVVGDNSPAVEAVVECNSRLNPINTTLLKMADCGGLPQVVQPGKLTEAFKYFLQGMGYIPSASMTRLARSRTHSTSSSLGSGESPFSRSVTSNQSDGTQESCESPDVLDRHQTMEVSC
UniProt Q8TD19: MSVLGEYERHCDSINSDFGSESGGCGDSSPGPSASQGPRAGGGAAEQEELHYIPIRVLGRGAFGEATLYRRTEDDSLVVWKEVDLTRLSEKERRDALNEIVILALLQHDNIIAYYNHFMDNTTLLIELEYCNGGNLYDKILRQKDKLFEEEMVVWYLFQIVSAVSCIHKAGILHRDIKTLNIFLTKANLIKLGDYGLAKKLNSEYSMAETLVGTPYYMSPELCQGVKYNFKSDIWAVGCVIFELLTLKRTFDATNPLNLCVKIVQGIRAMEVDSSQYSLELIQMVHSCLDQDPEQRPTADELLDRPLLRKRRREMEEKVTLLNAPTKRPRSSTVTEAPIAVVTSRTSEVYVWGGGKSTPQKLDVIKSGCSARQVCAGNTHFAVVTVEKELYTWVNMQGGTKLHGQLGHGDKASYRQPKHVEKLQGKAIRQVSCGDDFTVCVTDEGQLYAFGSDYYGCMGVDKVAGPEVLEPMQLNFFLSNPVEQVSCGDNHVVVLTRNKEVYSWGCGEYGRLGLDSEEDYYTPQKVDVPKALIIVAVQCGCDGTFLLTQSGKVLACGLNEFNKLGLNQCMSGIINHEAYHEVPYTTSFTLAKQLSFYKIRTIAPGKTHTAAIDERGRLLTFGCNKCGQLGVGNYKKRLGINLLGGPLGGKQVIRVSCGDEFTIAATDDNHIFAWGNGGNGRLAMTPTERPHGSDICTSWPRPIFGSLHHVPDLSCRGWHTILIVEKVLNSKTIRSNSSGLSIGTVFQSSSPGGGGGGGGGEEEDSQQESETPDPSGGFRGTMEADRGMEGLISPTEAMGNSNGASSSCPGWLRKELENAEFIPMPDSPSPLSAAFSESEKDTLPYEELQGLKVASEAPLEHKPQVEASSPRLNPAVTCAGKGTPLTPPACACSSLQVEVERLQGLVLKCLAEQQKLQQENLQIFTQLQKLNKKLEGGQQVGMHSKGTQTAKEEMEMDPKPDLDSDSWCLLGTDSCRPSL
UniProt Q96D46: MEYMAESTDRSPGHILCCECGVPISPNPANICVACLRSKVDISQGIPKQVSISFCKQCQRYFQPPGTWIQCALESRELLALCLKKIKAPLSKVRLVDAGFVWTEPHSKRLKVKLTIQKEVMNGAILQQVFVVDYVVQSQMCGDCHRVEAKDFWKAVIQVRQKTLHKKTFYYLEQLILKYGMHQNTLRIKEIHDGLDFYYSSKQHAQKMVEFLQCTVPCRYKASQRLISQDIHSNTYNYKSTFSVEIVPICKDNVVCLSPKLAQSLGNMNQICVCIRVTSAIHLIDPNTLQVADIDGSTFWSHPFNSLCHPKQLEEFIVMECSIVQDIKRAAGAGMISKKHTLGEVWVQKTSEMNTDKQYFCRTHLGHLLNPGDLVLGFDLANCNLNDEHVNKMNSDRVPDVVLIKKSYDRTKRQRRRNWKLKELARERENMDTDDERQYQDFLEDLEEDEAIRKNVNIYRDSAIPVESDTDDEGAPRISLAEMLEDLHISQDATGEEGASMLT
UniProt Q9UGY1: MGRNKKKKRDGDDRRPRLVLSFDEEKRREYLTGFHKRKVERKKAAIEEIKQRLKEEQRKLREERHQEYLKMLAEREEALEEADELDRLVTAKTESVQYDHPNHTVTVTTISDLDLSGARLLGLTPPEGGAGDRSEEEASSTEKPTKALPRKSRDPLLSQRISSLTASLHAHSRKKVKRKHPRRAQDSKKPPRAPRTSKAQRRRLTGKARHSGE
UniProt Q9Y2X3: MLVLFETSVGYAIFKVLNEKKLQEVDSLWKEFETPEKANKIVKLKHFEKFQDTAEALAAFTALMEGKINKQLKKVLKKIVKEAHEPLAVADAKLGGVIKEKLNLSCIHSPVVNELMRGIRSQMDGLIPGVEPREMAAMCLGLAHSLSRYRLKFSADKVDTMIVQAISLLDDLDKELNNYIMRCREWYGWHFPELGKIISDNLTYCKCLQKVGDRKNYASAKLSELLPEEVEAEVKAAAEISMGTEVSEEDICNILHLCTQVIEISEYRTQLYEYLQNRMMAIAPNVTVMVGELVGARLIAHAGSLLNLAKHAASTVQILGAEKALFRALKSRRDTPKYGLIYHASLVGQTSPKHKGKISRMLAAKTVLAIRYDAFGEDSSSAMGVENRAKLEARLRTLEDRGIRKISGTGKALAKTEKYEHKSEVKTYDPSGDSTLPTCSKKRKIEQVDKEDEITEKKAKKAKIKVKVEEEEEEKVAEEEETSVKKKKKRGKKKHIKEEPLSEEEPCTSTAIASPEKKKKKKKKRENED

Compound: CC[C@@H](C)Nc1cc(C(=O)N[C@H]2C[C@H]3CC[C@@H](C2)N3c2ccc(C(=O)C3CC3)cn2)c(C)cc1C(N)=O [XL888]
Assay: phosphopeptide melting temperature shift (XL888 minus DMSO); higher = stabilised by drug treatment
Settings: 100 µM; treatment time 2 h; layout: intact cells; SK-Mel 28
Method: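 Phospho-TPP in intact SK-Mel 28 cells treated with 100 uM XL888 or DMSO for 2 h, heated at 10 temperatures (37-67 C) for 3 min, soluble fraction TMT10plex-labelled and TiO2 phospho-enriched. Melting curves were fitted per phosphopeptide; the value is the melting point difference (drug minus vehicle) in each of two biological replicates.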

In the case of “MVP phosphosite_873 (phosphosite position: 873) (UniProt Q14764)”, the “phosphopeptide melting temperature shift” value is reported as -0.79 ± 0.67 °C.
For “MYBBP1A phosphosite_775 (phosphosite position: 775) (UniProt Q9BQG0)”, the “phosphopeptide melting temperature shift” value was -0.46 ± 0.38 °C.
In the case of “MYH9 phosphosite_1714 (phosphosite position: 1714) (UniProt P35579)”, the “phosphopeptide melting temperature shift” value is reported as -0.931 °C.
With “MYO18A phosphosite_1067 (phosphosite position: 1067) (UniProt Q92614)” the “phosphopeptide melting temperature shift” value was 0.556 °C.
With “MYO18A phosphosite_1970 (phosphosite position: 1970) (UniProt Q92614)” the “phosphopeptide melting temperature shift” value was 0.71 ± 0.6 °C.
“MYO18A phosphosite_2007 (phosphosite position: 2007) (UniProt Q92614)” was tested, and the “phosphopeptide melting temperature shift” value was -0.389 °C.
With “MYO18A phosphosite_2020 (phosphosite position: 2020) (UniProt Q92614)” the “phosphopeptide melting temperature shift” value was 0.174 ± 0.022 °C.
For “MYO18A phosphosite_2041 (phosphosite position: 2041) (UniProt Q92614)”, the “phosphopeptide melting temperature shift” value was 0.721 ± 0.55 °C.
With “MYO18A phosphosite_2043 (phosphosite position: 2043) (UniProt Q92614)” the “phosphopeptide melting temperature shift” value was 0.693 ± 1 °C.
With “N4BP1 phosphosite_288 (phosphosite position: 288) (UniProt O75113)” the “phosphopeptide melting temperature shift” value was 2.23 °C.
For “NAB2 phosphosite_159 (phosphosite position: 159) (UniProt Q15742)”, the “phosphopeptide melting temperature shift” value was 1.51 °C.
With “NAB2 phosphosite_162 (phosphosite position: 162) (UniProt Q15742)” the “phosphopeptide melting temperature shift” value was 2.03 °C.
With “NAB2 phosphosite_171 (phosphosite position: 171) (UniProt Q15742)” the “phosphopeptide melting temperature shift” value was 4.24 °C.
With “NAGK phosphosite_76 (phosphosite position: 76) (UniProt Q9UJ70)” the “phosphopeptide melting temperature shift” value was 1.58 °C.
For “NAP1L4 phosphosite_51 (phosphosite position: 51) (UniProt Q99733)”, the “phosphopeptide melting temperature shift” value was 1.21 ± 0.84 °C.
With “NAP1L4 phosphosite_54 (phosphosite position: 54) (UniProt Q99733)” the “phosphopeptide melting temperature shift” value was -1.08 °C.
With “NAP1L4 phosphosite_304 (phosphosite position: 304) (UniProt Q99733)” the “phosphopeptide melting temperature shift” value was 0.75 ± 0.45 °C.
With “NCAPG phosphosite_1015 (phosphosite position: 1015) (UniProt Q9BPX3)” the “phosphopeptide melting temperature shift” value was 0.698 ± 0.73 °C.
For “NCBP1 phosphosite_7 (phosphosite position: 7) (UniProt Q09161)”, the “phosphopeptide melting temperature shift” value was 2.48 °C.
With “NCBP1 phosphosite_22 (phosphosite position: 22) (UniProt Q09161)” the “phosphopeptide melting temperature shift” value was -0.159 °C.
For “NCK1 phosphosite_85 (phosphosite position: 85) (UniProt P16333)”, the “phosphopeptide melting temperature shift” value was 1.55 ± 0.88 °C.
“NCOA5 phosphosite_29 (phosphosite position: 29) (UniProt Q9HCD5)” was tested, and the “phosphopeptide melting temperature shift” value was 2.55 °C.
In the case of “NCOA5 phosphosite_34 (phosphosite position: 34) (UniProt Q9HCD5)”, the “phosphopeptide melting temperature shift” value is reported as 2.55 °C.
“NDRG3 phosphosite_352 (phosphosite position: 352) (UniProt Q9UGV2)” was tested, and the “phosphopeptide melting temperature shift” value was 3.18 °C.
For “NEK9 phosphosite_869 (phosphosite position: 869) (UniProt Q8TD19)”, the “phosphopeptide melting temperature shift” value was -3.15 °C.
For “NMD3 phosphosite_25 (phosphosite position: 25) (UniProt Q96D46)”, the “phosphopeptide melting temperature shift” value was 1.94 °C.
With “NMNAT1 phosphosite_117 (phosphosite position: 117) (UniProt Q9HAN9)” the “phosphopeptide melting temperature shift” value was -1.04 ± 0.85 °C.
In the case of “NMT1 phosphosite_69 (phosphosite position: 69) (UniProt P30419)”, the “phosphopeptide melting temperature shift” value is reported as 0.824 ± 0.58 °C.
With “NOC2L phosphosite_672 (phosphosite position: 672) (UniProt Q9Y3T9)” the “phosphopeptide melting temperature shift” value was 5.03 °C.
For “NOC2L phosphosite_673 (phosphosite position: 673) (UniProt Q9Y3T9)”, the “phosphopeptide melting temperature shift” value was 4.23 °C.
“NOL12 phosphosite_139 (phosphosite position: 139) (UniProt Q9UGY1)” was tested, and the “phosphopeptide melting temperature shift” value was -1.43 °C.
In the case of “NOL12 phosphosite_140 (phosphosite position: 140) (UniProt Q9UGY1)”, the “phosphopeptide melting temperature shift” value is reported as -1.43 °C.
For “NOP58 phosphosite_502 (phosphosite position: 502) (UniProt Q9Y2X3)”, the “phosphopeptide melting temperature shift” value was -3.27 °C.
With “NOTCH2 phosphosite_1845 (phosphosite position: 1845) (UniProt Q04721)” the “phosphopeptide melting temperature shift” value was 4.18 °C.
“NPM1 phosphosite_88 (phosphosite position: 88) (UniProt P06748)” was tested, and the “phosphopeptide melting temperature shift” value was -4.34 °C.
